{"source": "PubChem BioAssay AID1159584 (Peter MacCallum Cancer Centre, 2016)", "screen": "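Genes whose loss is lethal only together with E-cadherin loss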 (primary screen)", "system": "human MCF10A breast epithelial cells, parental and CDH1-null", "reagent": "siRNA against human genes", "measured": "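ATP luminescence (CellTiter-Glo) viability per line relative to mean mock wells over all plates, and the ratio of CDH1-null to parental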", "scale": "CDH1-null / parental viability ratio: higher = CDH1-null cells survive relatively better than parental", "note": "The whole screen tested about 18,000 reagents; below is a random part of them. Further read-outs or replicates are left out here. The record does not give: the amount of reagent, the time to read-out."}
{"gene knocked down": "JDP2 (Jun dimerization protein 2)", "PubChem SID": "SID152147626", "CDH1-null / parental viability ratio": 1.05}
{"gene knocked down": "CARD10 (caspase recruitment domain family member 10)", "PubChem SID": "SID152153756", "CDH1-null / parental viability ratio": 0.98}
{"gene knocked down": "RPS23 (ribosomal protein S23)", "PubChem SID": "SID152149988", "CDH1-null / parental viability ratio": 1.15}
{"gene knocked down": "XPOT (exportin for tRNA)", "PubChem SID": "SID134314929", "CDH1-null / parental viability ratio": 1.18}
{"gene knocked down": "MUC20 (mucin 20, cell surface associated)", "PubChem SID": "SID135623158", "CDH1-null / parental viability ratio": 1.2}
{"gene knocked down": "TGM5 (transglutaminase 5)", "PubChem SID": "SID135621811", "CDH1-null / parental viability ratio": 0.91}
{"gene knocked down": "ACOT11 (acyl-CoA thioesterase 11)", "PubChem SID": "SID134313512", "CDH1-null / parental viability ratio": 0.82}
{"gene knocked down": "DHX16 (DEAH-box helicase 16)", "PubChem SID": "SID134315812", "CDH1-null / parental viability ratio": 0.89}
{"gene knocked down": "SLC31A1", "PubChem SID": "SID134312577", "CDH1-null / parental viability ratio": 0.97}
{"gene knocked down": "TMED7 (transmembrane p24 trafficking protein 7)", "PubChem SID": "SID152152282", "CDH1-null / parental viability ratio": 1.24}
{"gene knocked down": "TUBD1 (tubulin delta 1)", "PubChem SID": "SID135621263", "CDH1-null / parental viability ratio": 1.05}
{"gene knocked down": "NCS1 (neuronal calcium sensor 1)", "PubChem SID": "SID134317264", "CDH1-null / parental viability ratio": 1.07}
{"gene knocked down": "SPG11 (SPG11 vesicle trafficking associated, spatacsin)", "PubChem SID": "SID152151195", "CDH1-null / parental viability ratio": 0.92}
{"gene knocked down": "SLITRK6 (SLIT and NTRK like family member 6)", "PubChem SID": "SID134310382", "CDH1-null / parental viability ratio": 0.88}
{"gene knocked down": "RRN3 (RNA polymerase I transcription factor RRN3)", "PubChem SID": "SID152153663", "CDH1-null / parental viability ratio": 1.1}
{"gene knocked down": "WEE1 (WEE1 G2 checkpoint kinase)", "PubChem SID": "SID152152823", "CDH1-null / parental viability ratio": 0.86}
{"gene knocked down": "SLC24A5", "PubChem SID": "SID152155969", "CDH1-null / parental viability ratio": 1.03}
{"gene knocked down": "C19orf12 (chromosome 19 open reading frame 12)", "PubChem SID": "SID135622808", "CDH1-null / parental viability ratio": 0.89}
{"gene knocked down": "NDE1 (nudE neurodevelopment protein 1)", "PubChem SID": "SID134324297", "CDH1-null / parental viability ratio": 1.42}
{"gene knocked down": "GATC (glutamyl-tRNA amidotransferase subunit C)", "PubChem SID": "SID135625153", "CDH1-null / parental viability ratio": 0.75}
{"gene knocked down": "ST3GAL6 (ST3 beta-galactoside alpha-2,3-sialyltransferase 6)", "PubChem SID": "SID152147175", "CDH1-null / parental viability ratio": 1.05}
{"gene knocked down": "DBN1 (drebrin 1)", "PubChem SID": "SID135622206", "CDH1-null / parental viability ratio": 1.03}
{"gene knocked down": "MBOAT1 (membrane bound glycerophospholipid O-acyltransferase 1)", "PubChem SID": "SID152151471", "CDH1-null / parental viability ratio": 1.35}
{"gene knocked down": "ARB2A (ARB2 cotranscriptional regulator A)", "PubChem SID": "SID135623217", "CDH1-null / parental viability ratio": 1.06}
{"gene knocked down": "DMPK (DM1 protein kinase)", "PubChem SID": "SID135620855", "CDH1-null / parental viability ratio": 0.96}
{"gene knocked down": "SERPINB13 (serpin family B member 13)", "PubChem SID": "SID134319377", "CDH1-null / parental viability ratio": 0.75}
{"gene knocked down": "UBALD2 (UBA like domain containing 2)", "PubChem SID": "SID134322768", "CDH1-null / parental viability ratio": 0.95}
{"gene knocked down": "DESI1 (desumoylating isopeptidase 1)", "PubChem SID": "SID152156401", "CDH1-null / parental viability ratio": 1.17}
{"gene knocked down": "DNPH1 (2'-deoxynucleoside 5'-phosphate N-hydrolase 1)", "PubChem SID": "SID135622282", "CDH1-null / parental viability ratio": 0.98}
{"gene knocked down": "NAT9 (N-acetyltransferase 9)", "PubChem SID": "SID134321559", "CDH1-null / parental viability ratio": 1}
{"gene knocked down": "PITPNM1 (phosphatidylinositol transfer protein membrane associated 1)", "PubChem SID": "SID134323646", "CDH1-null / parental viability ratio": 1.11}
{"gene knocked down": "MACIR (macrophage immunometabolism regulator)", "PubChem SID": "SID134319141", "CDH1-null / parental viability ratio": 0.84}
{"gene knocked down": "HTN1 (histatin 1)", "PubChem SID": "SID134320666", "CDH1-null / parental viability ratio": 1.21}
{"gene knocked down": "LSM12 (LSM12 homolog)", "PubChem SID": "SID152156206", "CDH1-null / parental viability ratio": 1.51}
{"gene knocked down": "SERAC1 (serine active site containing 1)", "PubChem SID": "SID134319092", "CDH1-null / parental viability ratio": 0.9}
{"gene knocked down": "CLDN10 (claudin 10)", "PubChem SID": "SID134323058", "CDH1-null / parental viability ratio": 0.98}
{"gene knocked down": "NPC2 (NPC intracellular cholesterol transporter 2)", "PubChem SID": "SID134321166", "CDH1-null / parental viability ratio": 1.01}
{"gene knocked down": "COL4A5 (collagen type IV alpha 5 chain)", "PubChem SID": "SID134315378", "CDH1-null / parental viability ratio": 1.24}
{"gene knocked down": "PLEKHF2 (pleckstrin homology and FYVE domain containing 2)", "PubChem SID": "SID134322267", "CDH1-null / parental viability ratio": 1}
{"gene knocked down": "GOLM2 (golgi membrane protein 2)", "PubChem SID": "SID152148774", "CDH1-null / parental viability ratio": 0.73}
{"gene knocked down": "SBK1 (SH3 domain binding kinase 1)", "PubChem SID": "SID152154198", "CDH1-null / parental viability ratio": 0.93}
{"gene knocked down": "CMTM5 (CKLF like MARVEL transmembrane domain containing 5)", "PubChem SID": "SID134315242", "CDH1-null / parental viability ratio": 1.17}
{"gene knocked down": "MICU2 (mitochondrial calcium uptake 2)", "PubChem SID": "SID134319511", "CDH1-null / parental viability ratio": 0.92}
{"gene knocked down": "CNKSR3 (CNKSR family member 3)", "PubChem SID": "SID135623543", "CDH1-null / parental viability ratio": 0.9}
{"gene knocked down": "MED9 (mediator complex subunit 9)", "PubChem SID": "SID134317585", "CDH1-null / parental viability ratio": 1.02}
